PubChem BioAssay AID1224829 | NIAID – 2016
Shown is an unselected part of about 3,800 deposited reagents. 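Calls cover raised and lowered translocation; gene median uses one vendor's three siRNAs; qiagen siRNAs acted more weakly than ambion siRNAs.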 The numbers tell different reagents against one gene apart. No sequences are given here.

Assay: 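Secondary check of hits that alter LPS-induced p65 translocation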 (follow-up of hits)
System: mouse RAW264.7 G9 macrophage reporter cells
Reagents: single siRNA against mouse genes, 100 nM
Timing: 2 days of siRNA knock-down, then 40 min of LPS before fixing
Treatment: LPS (Salmonella minnesota R595) at 10 ng/ml
Measured: 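Imaging of GFP-p65 after 40 min of LPS; nuclear over perinuclear ring intensity ratio, scaled to plate median and non-targeting control wells, given as z-score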
Scale: p65 translocation z-score and gene median z-score, per vendor: higher = more nuclear NF-kappaB p65 after LPS
Rule for the call: 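Active means the replicate-mean z-score lies beyond plus or minus 2, in either direction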
Meaning of the calls: active = changed p65 translocation (either direction); inactive = no clear change

Target gene	siRNA no.	siRNA vendor or control pool	p65 translocation z-score, replicate mean	p65 translocation z-score, replicate 1	p65 translocation z-score, replicate 2	gene median z-score, per vendor	Outcome
Or4a39 (olfactory receptor family 4subfamily A member 39)	1	ambion single siRNA	0.238	1.08	-0.6	-1.29	inactive
Or4a39 (olfactory receptor family 4subfamily A member 39)	2	ambion single siRNA	-2.81	-1.98	-3.65	-1.29	active
Or4a39 (olfactory receptor family 4subfamily A member 39)	3	ambion single siRNA				-1.29	inactive
Or4a39 (olfactory receptor family 4subfamily A member 39)	4	qiagen single siRNA	1.79	1.24	2.34	0.256	inactive
Or4a39 (olfactory receptor family 4subfamily A member 39)	5	qiagen single siRNA	0.256	-0.205	0.718	0.256	inactive
Or4a39 (olfactory receptor family 4subfamily A member 39)	6	qiagen single siRNA	-1.69	-2.02	-1.37	0.256	inactive
Synj2bp (synaptojanin 2 binding protein)	1	ambion single siRNA	-3.29	-2.81	-3.77	-3.32	active
Synj2bp (synaptojanin 2 binding protein)	2	ambion single siRNA	-2.69	-2.86	-2.51	-3.32	active
Synj2bp (synaptojanin 2 binding protein)	3	ambion single siRNA	-5.27	-4.62	-5.92	-3.32	active
Dsg1a (desmoglein 1 alpha)	1	ambion single siRNA	0.88	1.38	0.38	-0.00152	inactive
Dsg1a (desmoglein 1 alpha)	2	ambion single siRNA	-0.491	0.38	-1.36	-0.00152	inactive
Dsg1a (desmoglein 1 alpha)	3	ambion single siRNA	-0.713	-1.04	-0.383	-0.00152	inactive
Dsg1a (desmoglein 1 alpha)	4	qiagen single siRNA	2.72	2.6	2.84	1.5	active
Dsg1a (desmoglein 1 alpha)	5	qiagen single siRNA	0.325	-0.0704	0.72	1.5	inactive
Dsg1a (desmoglein 1 alpha)	6	qiagen single siRNA	0.834	-0.602	2.27	1.5	inactive
Med21 (mediator complex subunit 21)	1	ambion single siRNA	-1.97	-3.62	-0.334	-3.7	inactive
Med21 (mediator complex subunit 21)	2	ambion single siRNA	-3.25	-2.72	-3.78	-3.7	active
Med21 (mediator complex subunit 21)	3	ambion single siRNA	-4.3	-3.87	-4.73	-3.7	active
Med21 (mediator complex subunit 21)	4	qiagen single siRNA	0.542	-0.713	1.8	0.336	inactive
Med21 (mediator complex subunit 21)	5	qiagen single siRNA	-0.464	0.336	-1.26	0.336	inactive
Med21 (mediator complex subunit 21)	6	qiagen single siRNA	2.11	2.11		0.336	active
Arpc2 (actin related protein 2/3 complex, subunit 2)	1	qiagen single siRNA	-0.13	-0.837	0.576	-0.672	inactive
Arpc2 (actin related protein 2/3 complex, subunit 2)	2	qiagen single siRNA	-0.779	-0.909	-0.648	-0.672	inactive
Arpc2 (actin related protein 2/3 complex, subunit 2)	3	qiagen single siRNA	-0.589	-0.483	-0.696	-0.672	inactive
Supt5 (suppressor of Ty 5, DSIF elongation factor subunit)	1	ambion single siRNA	-2.53	-3.53	-1.53	-3.78	active
Supt5 (suppressor of Ty 5, DSIF elongation factor subunit)	2	ambion single siRNA	-4.19	-4.49	-3.88	-3.78	active
Supt5 (suppressor of Ty 5, DSIF elongation factor subunit)	3	ambion single siRNA	-4.41	-5.13	-3.68	-3.78	active
Supt5 (suppressor of Ty 5, DSIF elongation factor subunit)	4	qiagen single siRNA	-2.98	-2.98		-2	active
Supt5 (suppressor of Ty 5, DSIF elongation factor subunit)	5	qiagen single siRNA	-2.84	-0.635	-5.05	-2	active
Supt5 (suppressor of Ty 5, DSIF elongation factor subunit)	6	qiagen single siRNA	-1.94	-1.88	-2	-2	inactive
Ube2e2 (ubiquitin-conjugating enzyme E2E 2)	1	ambion single siRNA	3.6	4.36	2.84	0.284	active
Ube2e2 (ubiquitin-conjugating enzyme E2E 2)	2	ambion single siRNA	0.284	0.408	0.16	0.284	inactive
Ube2e2 (ubiquitin-conjugating enzyme E2E 2)	3	ambion single siRNA	-1.19	-1.41	-0.966	0.284	inactive
Ube2e2 (ubiquitin-conjugating enzyme E2E 2)	4	qiagen single siRNA	-0.621	-0.793	-0.448	0.206	inactive
Ube2e2 (ubiquitin-conjugating enzyme E2E 2)	5	qiagen single siRNA	2.2	0.462	3.94	0.206	active
Ube2e2 (ubiquitin-conjugating enzyme E2E 2)	6	qiagen single siRNA	0.843	1.74	-0.0489	0.206	inactive
Entr1 (endosome associated trafficking regulator 1)	1	ambion single siRNA	0.74	0.372	1.11	0.447	inactive
Entr1 (endosome associated trafficking regulator 1)	2	ambion single siRNA	0.402	0.402		0.447	inactive
Entr1 (endosome associated trafficking regulator 1)	3	ambion single siRNA	0.496	0.447	0.545	0.447	inactive
Entr1 (endosome associated trafficking regulator 1)	4	qiagen single siRNA	-1.66	-1.07	-2.25	1.72	inactive
Entr1 (endosome associated trafficking regulator 1)	5	qiagen single siRNA	1.72	0.807	2.64	1.72	inactive
Entr1 (endosome associated trafficking regulator 1)	6	qiagen single siRNA	4.4	3.62	5.19	1.72	active
Kras (Kras proto-oncogene, GTPase)	1	ambion single siRNA	1.12	0.944	1.29	-0.0534	inactive
Kras (Kras proto-oncogene, GTPase)	2	ambion single siRNA	-0.339	-0.0534	-0.625	-0.0534	inactive
Kras (Kras proto-oncogene, GTPase)	3	ambion single siRNA	-3.92	-3.92		-0.0534	active
Kras (Kras proto-oncogene, GTPase)	4	qiagen single siRNA	-0.0992	0.354	-0.553	-0.0992	inactive
Kras (Kras proto-oncogene, GTPase)	5	qiagen single siRNA	1.25	1.49	1.01	-0.0992	inactive
Kras (Kras proto-oncogene, GTPase)	6	qiagen single siRNA	-1.13	-1.44	-0.818	-0.0992	inactive
Fech (ferrochelatase)	1	ambion single siRNA	-3.87	-3.87		-3.79	active
Fech (ferrochelatase)	2	ambion single siRNA	-3.55	-3.39	-3.71	-3.79	active
Fech (ferrochelatase)	3	ambion single siRNA	-4.13	-4.13		-3.79	active
Fech (ferrochelatase)	4	qiagen single siRNA	3.04	2.1	3.98	1.81	active
Fech (ferrochelatase)	5	qiagen single siRNA	2.81	1.51	4.11	1.81	active
Fech (ferrochelatase)	6	qiagen single siRNA	-2.39	-1.68	-3.1	1.81	active
Pate6 (prostate and testis expressed 6)	1	ambion single siRNA	0.447	0.144	0.749	-1.64	inactive
Pate6 (prostate and testis expressed 6)	2	ambion single siRNA	-1.64	-1.65	-1.64	-1.64	inactive
Pate6 (prostate and testis expressed 6)	3	ambion single siRNA	-4.55	-4.87	-4.23	-1.64	active
Pate6 (prostate and testis expressed 6)	4	qiagen single siRNA	1.27	1.78	0.756	1.25	inactive
Pate6 (prostate and testis expressed 6)	5	qiagen single siRNA	1.75	1.76	1.75	1.25	inactive
Pate6 (prostate and testis expressed 6)	6	qiagen single siRNA	-1.12	-2.04	-0.202	1.25	inactive
Ly6g6d (lymphocyte antigen 6 family member G6D)	1	ambion single siRNA	-0.453	-0.0326	-0.873	-0.453	inactive
Ly6g6d (lymphocyte antigen 6 family member G6D)	2	ambion single siRNA	0.83	1.19	0.472	-0.453	inactive
Ly6g6d (lymphocyte antigen 6 family member G6D)	3	ambion single siRNA	-4.86	-5.66	-4.05	-0.453	active
Ly6g6d (lymphocyte antigen 6 family member G6D)	4	qiagen single siRNA	0.983	0.294	1.67	-1.4	inactive
Ly6g6d (lymphocyte antigen 6 family member G6D)	5	qiagen single siRNA	-2.64	-2.53	-2.75	-1.4	active
Ly6g6d (lymphocyte antigen 6 family member G6D)	6	qiagen single siRNA	-1.44	-0.28	-2.6	-1.4	inactive

In a second layout: entries from further up.
Synj2bp (synaptojanin 2 binding protein) #1, siRNA vendor or control pool ambion single siRNA: p65 translocation z-score, replicate mean = -3.29; p65 translocation z-score, replicate 1 = -2.81; p65 translocation z-score, replicate 2 = -3.77; gene median z-score, per vendor = -3.32; Outcome = active
Synj2bp (synaptojanin 2 binding protein) #2, siRNA vendor or control pool ambion single siRNA: p65 translocation z-score, replicate mean = -2.69; p65 translocation z-score, replicate 1 = -2.86; p65 translocation z-score, replicate 2 = -2.51; gene median z-score, per vendor = -3.32; Outcome = active
Synj2bp (synaptojanin 2 binding protein) #3, siRNA vendor or control pool ambion single siRNA: p65 translocation z-score, replicate mean = -5.27; p65 translocation z-score, replicate 1 = -4.62; p65 translocation z-score, replicate 2 = -5.92; gene median z-score, per vendor = -3.32; Outcome = active
Dsg1a (desmoglein 1 alpha) #1, siRNA vendor or control pool ambion single siRNA: p65 translocation z-score, replicate mean = 0.88; p65 translocation z-score, replicate 1 = 1.38; p65 translocation z-score, replicate 2 = 0.38; gene median z-score, per vendor = -0.00152; Outcome = inactive
Dsg1a (desmoglein 1 alpha) #2, siRNA vendor or control pool ambion single siRNA: p65 translocation z-score, replicate mean = -0.491; p65 translocation z-score, replicate 1 = 0.38; p65 translocation z-score, replicate 2 = -1.36; gene median z-score, per vendor = -0.00152; Outcome = inactive
Dsg1a (desmoglein 1 alpha) #3, siRNA vendor or control pool ambion single siRNA: p65 translocation z-score, replicate mean = -0.713; p65 translocation z-score, replicate 1 = -1.04; p65 translocation z-score, replicate 2 = -0.383; gene median z-score, per vendor = -0.00152; Outcome = inactive
Dsg1a (desmoglein 1 alpha) #4, siRNA vendor or control pool qiagen single siRNA: p65 translocation z-score, replicate mean = 2.72; p65 translocation z-score, replicate 1 = 2.6; p65 translocation z-score, replicate 2 = 2.84; gene median z-score, per vendor = 1.5; Outcome = active
Dsg1a (desmoglein 1 alpha) #5, siRNA vendor or control pool qiagen single siRNA: p65 translocation z-score, replicate mean = 0.325; p65 translocation z-score, replicate 1 = -0.0704; p65 translocation z-score, replicate 2 = 0.72; gene median z-score, per vendor = 1.5; Outcome = inactive
Dsg1a (desmoglein 1 alpha) #6, siRNA vendor or control pool qiagen single siRNA: p65 translocation z-score, replicate mean = 0.834; p65 translocation z-score, replicate 1 = -0.602; p65 translocation z-score, replicate 2 = 2.27; gene median z-score, per vendor = 1.5; Outcome = inactive
Med21 (mediator complex subunit 21) #1, siRNA vendor or control pool ambion single siRNA: p65 translocation z-score, replicate mean = -1.97; p65 translocation z-score, replicate 1 = -3.62; p65 translocation z-score, replicate 2 = -0.334; gene median z-score, per vendor = -3.7; Outcome = inactive
Med21 (mediator complex subunit 21) #2, siRNA vendor or control pool ambion single siRNA: p65 translocation z-score, replicate mean = -3.25; p65 translocation z-score, replicate 1 = -2.72; p65 translocation z-score, replicate 2 = -3.78; gene median z-score, per vendor = -3.7; Outcome = active
